## Melanoma cell counts after drug treatment

Drugs:
cediranib: COc1cc2c(Oc3ccc4[nH]c(C)cc4c3F)ncnc2cc1OCCCN1CCCC1 at 0.4 µM
Src-I1: COc1cc2ncnc(Nc3ccc(Oc4ccccc4)cc3)c2cc1OC at 2 µM
SU6656: CN(C)S(=O)(=O)c1ccc2c(c1)/C(=C/c1cc3c([nH]1)CCCC3)C(=O)N2 at 0.4 µM
SNS-032: CC(C)(C)c1cnc(CSc2cnc(NC(=O)C3CCNCC3)s2)o1 at 0.01 µM
VX-702: NC(=O)c1ccc(N(C(N)=O)c2c(F)cccc2F)nc1-c1ccc(F)cc1F at 0.4 µM
T0901317: O=S(=O)(c1ccccc1)N(CC(F)(F)F)c1ccc(C(O)(C(F)(F)F)C(F)(F)F)cc1 at 1.4 µM
KU-55933: O=c1cc(-c2cccc3c2Sc2ccccc2S3)oc(N2CCOCC2)c1 at 1 µM
GSK0660: COC(=O)c1sccc1S(=O)(=O)Nc1ccc(Nc2ccccc2)cc1OC at 1 µM
veliparib: C[C@]1(c2nc3c(C(N)=O)cccc3[nH]2)CCCN1 at 1.4 µM
embelin: CCCCCCCCCCCC1=C(O)C(=O)C=C(O)C1=O at 1.2 µM
dorsomorphin: c1cc(-c2cnn3cc(-c4ccc(OCCN5CCCCC5)cc4)cnc23)ccn1 at 0.4 µM
GW9662: O=C(Nc1ccccc1)c1cc([N+](=O)[O-])ccc1Cl at 2 µM
GSK650394: O=C(O)c1ccc(-c2c[nH]c3ncc(-c4ccccc4)cc23)cc1C1CCCC1 at 0.16 µM

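Human melanoma cell lines in 1,536-well plates were treated with a pair of drugs for 72 h, then fixed, stained and imaged. The read-out is cell count (nuclei) in % of the DMSO control; lower values mean stronger growth inhibition or killing. Concentrations were fixed for each drug; these are the lower of two levels, a fifth of the higher. The file gives one value for each pair and line, without errors, so small differences may be noise.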 This is part of the screen, not chosen by result. A dash means that no value is listed here.

Pair	COLO 829	A2058	A375	A101D	C32	IPC-298	LOX IMVI	G-361	501mel	MEL-HO	IST-MEL1	LB2518-MEL	COLO 792	COLO 800
dorsomorphin and SNS-032	63.3	99.2	70.0	93.5	77.1	100	109	99.3	91.6	97.3	94.1	97.8	95.0	69.4
embelin and veliparib	93.6	101	84.7	87.7	82.4	104	73.5	91.9	126	82.5	93.7	95.1	86.1	89.3
GW9662 and T0901317	84.8	95.0	89.8	96.1	87.8	92.7	87.4	88.2	-	92.8	100	-	92.7	88.4
SU6656 and GSK0660	80.0	78.2	103	86.9	82.6	100	115	82.2	90.5	113	94.3	107	92.7	80.5
VX-702 and veliparib	91.5	97.5	81.5	88.9	104	100	78.2	95.3	-	101	88.1	93.0	83.2	101
Src-I1 and cediranib	120	107	102	118	102	102	72.8	102	83.1	97.0	99.8	97.0	94.5	84.5
GSK650394 and dorsomorphin	116	103	86.8	95.8	110	98.3	117	103	85.2	78.8	88.5	108	98.9	107
VX-702 and dorsomorphin	118	98.8	-	112	93.6	95.2	163	91.1	91.8	91.0	103	105	92.3	113
SU6656 and KU-55933	118	98.3	127	107	87.3	97.0	209	91.7	107	96.2	98.8	89.1	95.4	80.6
GSK650394 and embelin	96.5	109	90.3	109	87.5	104	81.6	91.3	100	98.0	98.2	94.8	98.1	69.2
VX-702 and Src-I1	105	91.3	-	95.1	99.0	103	181	99.2	80.6	77.3	96.6	138	80.1	139
SU6656 and VX-702	84.1	99.5	81.9	70.2	83.5	99.6	90.0	92.6	-	107	99.3	92.4	89.9	69.2
Src-I1 and SU6656	83.4	94.5	104	89.4	106	99.3	94.2	96.0	79.1	97.4	88.6	97.0	89.2	89.8
embelin and VX-702	99.5	91.8	-	110	102	108	173	92.0	110	89.5	89.3	96.3	88.9	103
embelin and SU6656	86.3	90.5	120	86.8	103	96.5	140	105	107	99.7	103	108	92.5	129
cediranib and embelin	97.4	113	92.1	101	104	103	129	93.3	89.6	101	103	98.1	109	115
KU-55933 and cediranib	111	97.8	93.8	110	91.0	99.8	140	88.0	-	110	102	-	68.4	113
GW9662 and VX-702	77.3	92.1	-	79.9	97.1	99.3	64.8	87.0	69.4	91.3	94.1	74.5	109	78.2
cediranib and GSK0660	91.7	91.4	89.6	92.9	91.6	99.7	112	106	103	93.9	111	98.3	97.5	79.3
GSK650394 and T0901317	75.3	99.4	78.8	101	92.5	93.1	92.0	89.0	87.3	88.4	112	109	108	91.1
SNS-032 and T0901317	91.2	80.4	79.6	95.7	99.6	92.3	78.6	101	-	88.3	93.5	-	98.8	114
cediranib and dorsomorphin	103	107	84.3	93.5	72.1	97.8	85.9	106	-	86.6	108	-	80.7	79.5
GSK0660 and SNS-032	89.7	104	106	108	81.9	105	97.2	86.4	101	109	101	92.6	94.1	65.5

The last 2 entries again:

Pair	COLO 829	A2058	A375	A101D	C32	IPC-298	LOX IMVI	G-361	501mel	MEL-HO	IST-MEL1	LB2518-MEL	COLO 792	COLO 800
cediranib and dorsomorphin	103	107	84.3	93.5	72.1	97.8	85.9	106	-	86.6	108	-	80.7	79.5
GSK0660 and SNS-032	89.7	104	106	108	81.9	105	97.2	86.4	101	109	101	92.6	94.1	65.5

Source: doi:10.1371/journal.pone.0140310, primary screening data, rounded.